## Screening data, single-dose tests

The chains behind the UniProt entries cited, without tags or fusion partners. Residues count along the entry.
UniProt P9WPC5, whole entry: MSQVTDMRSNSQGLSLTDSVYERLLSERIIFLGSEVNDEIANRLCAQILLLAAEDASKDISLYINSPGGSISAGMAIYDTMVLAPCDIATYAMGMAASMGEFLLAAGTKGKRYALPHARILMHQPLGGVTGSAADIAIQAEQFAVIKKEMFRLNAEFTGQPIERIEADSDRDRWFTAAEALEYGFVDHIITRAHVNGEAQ
UniProt P9WPC3, whole entry partner: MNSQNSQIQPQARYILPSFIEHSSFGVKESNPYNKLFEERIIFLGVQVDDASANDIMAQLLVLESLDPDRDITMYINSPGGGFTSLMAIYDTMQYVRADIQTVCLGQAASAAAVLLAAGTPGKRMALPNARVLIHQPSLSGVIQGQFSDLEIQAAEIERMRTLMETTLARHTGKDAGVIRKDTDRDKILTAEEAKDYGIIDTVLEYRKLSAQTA
UniProt P9WNZ1, whole entry: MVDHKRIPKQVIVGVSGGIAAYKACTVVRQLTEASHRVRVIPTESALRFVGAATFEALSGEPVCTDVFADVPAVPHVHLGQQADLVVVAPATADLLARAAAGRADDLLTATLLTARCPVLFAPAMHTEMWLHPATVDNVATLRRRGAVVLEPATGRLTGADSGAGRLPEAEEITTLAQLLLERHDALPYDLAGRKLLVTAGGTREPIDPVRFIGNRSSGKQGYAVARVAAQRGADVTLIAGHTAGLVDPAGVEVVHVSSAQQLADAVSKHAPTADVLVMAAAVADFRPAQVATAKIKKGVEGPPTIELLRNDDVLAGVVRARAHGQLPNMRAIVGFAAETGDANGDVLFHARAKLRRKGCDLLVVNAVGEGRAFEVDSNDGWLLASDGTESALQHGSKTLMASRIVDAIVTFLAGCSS
UniProt A4I591, 1-473: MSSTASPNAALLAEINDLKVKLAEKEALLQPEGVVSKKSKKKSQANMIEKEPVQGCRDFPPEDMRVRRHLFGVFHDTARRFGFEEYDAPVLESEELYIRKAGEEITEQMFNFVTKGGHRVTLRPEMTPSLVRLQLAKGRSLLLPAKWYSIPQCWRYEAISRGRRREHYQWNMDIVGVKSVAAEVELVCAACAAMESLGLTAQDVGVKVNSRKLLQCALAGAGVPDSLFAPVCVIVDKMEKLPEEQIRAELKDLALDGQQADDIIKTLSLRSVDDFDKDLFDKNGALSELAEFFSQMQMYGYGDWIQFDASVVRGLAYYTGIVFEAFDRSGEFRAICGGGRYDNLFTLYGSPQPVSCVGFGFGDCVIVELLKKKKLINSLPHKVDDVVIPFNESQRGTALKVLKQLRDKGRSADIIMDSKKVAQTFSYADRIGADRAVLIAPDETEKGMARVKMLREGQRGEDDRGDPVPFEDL

ClpP1P2: 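ClpP1P2, Mycobacterium tuberculosis (UniProt P9WPC5 and UniProt P9WPC3). Protease assay of ClpP1P2, read by the AMC dye that it sets free. Compounds at 50 µM. Higher reads as stronger inhibition, judged from the few compounds that gave an IC50. Most other retested compounds had strongly negative values. Size under these conditions: about 69,000 compounds, about 10 of them at 50% or above in at least one test.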
CoaBC: 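Coenzyme A biosynthesis protein CoaBC, Mycobacterium tuberculosis (UniProt P9WNZ1). Enzyme assay of CoaBC with a phosphate dye (Biomol Green) read at 650 nm. Concentration: 30 µM. Higher reads as stronger inhibition, judged from the few compounds that gave an IC50. Most strong results did not repeat in a second test. About 67,000 compounds were tested under these conditions; 0.06% (about 40) showed 50% or more at least once.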
Leishmania in macrophages: 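Cell assay of Leishmania donovani living inside macrophages; the read-out is not stated. Compounds at 30 µM. Higher reads as stronger inhibition (inferred: compounds with an IC50 in retests scored well above the rest). Size under these conditions: about 69,000 compounds, about 1,000 of them at 50% or above in at least one test.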
LiHisRS: 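Histidine-tRNA ligase, Leishmania infantum (UniProt A4I591). Enzyme assay of histidyl-tRNA synthetase; the read-out is not stated. Tested at 30 µM. The record gives no direction; compounds that gave an IC50 in retests scored well above the rest, so higher reads as stronger inhibition. The assay is labelled LdHisRS but filed under L. infantum. Size under these conditions: about 69,000 compounds, about 410 of them at 50% or above in at least one test.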

The filed quantity is “Percent Effect” (%).
The record does not define 0% and 100%; most values in the screen are far below 50% and negative numbers occur (in some assays of this library far below -100).
This is an unselected part of the compounds tested.
A dash means the value is not listed here; it may have been measured.

compound,ClpP1P2,CoaBC,Leishmania in macrophages,LiHisRS
CC[C@@H]1N(Cc2cccnc2)CCC[C@]12CCC(=O)N2C,-6.541,6.824,-,19.27
CN(C)S(=O)(=O)N1CCCC(CCC(=O)Nc2ccc(Cl)cc2)C1 (centres unmarked),6.177,9.794,14.33,4.839
O=C1NCCN2CCN(C(=O)NCCc3ccccc3)CC12 (centres unmarked),-0.2004,9.917,18.36,2.667
Cc1ccnc(NC(=O)c2cncc(C3CCNCC3)n2)c1,-3.683,7.838,2.131,8.451
CCOC(=O)C(CO)NC(=O)CCc1cccc(OC2CCCC2)c1 (centres unmarked),2.27,12.35,7.073,16.44
Cc1cccc(OC2CCN(S(=O)(=O)Cc3cccc(F)c3)CC2)n1,-10.22,2.886,17.02,11.86
CCN(Cc1ccncc1)c1nc(C)nc2oc(C)nc12,-3.631,-6.237,3.625,15.38
Cc1ccc2nc(C(=O)N(C)[C@@H]3CC[C@@H](N4CCCC4)[C@@H]3O)cn2c1,-14.65,4.067,16.52,11.51
CC(=O)N1CC2(CCN(Cc3ccc(Cl)cc3)C2)Cc2ccccc21 (centres unmarked),-7.472,4.211,-9.204,11.03
Cc1cc(C)c(CNC(=O)NCC2CCCOC2)c(=O)[nH]1 (centres unmarked),-24.12,8.184,17.78,18.35
CCN(CC)c1ncccc1CNC(=O)c1cc2nc(C)cc(C)n2n1,-12.83,-1.38,39.32,8.475
CN1CCCC[C@@H]2[C@H]1[C@@H](c1ccccc1)CCN2S(=O)(=O)N1CCCC1,0.2374,6.569,-,26.32
Cc1cccc(CN2CCC3(CCCN(C(=O)c4ccoc4)C3)C2=O)n1 (centres unmarked),1.66,-1.474,-,11.5
N#Cc1ccc(CN2CCCN(CCCn3cncn3)CC2)cc1,-7.475,0.3659,32.41,2.198
Cc1nc(CN(C)C2CCN(CCCOc3ccccc3)C2)no1 (centres unmarked),7.239,2.372,27.78,28.12
O=C(O)C(F)(F)F.O=C(O)C(F)(F)F.[H][C@@]12CN(CC3CCOCC3)CCO[C@]1([H])CN(Cc1ccc(C)s1)C2,-,-,24.65,-
CS(=O)(=O)N1CCC(NC(=O)COc2ccc(Cl)cc2)CC1,-11.57,-5.362,7.672,10.26
COCCC(=O)N1CCCC2(CCCN2Cc2ccccc2F)C1.O=C(O)C(F)(F)F (centres unmarked),-,-,10.06,-
[H][C@]12CC[C@]([H])(CN(c3nccc(C)n3)C1)N(CCOC)C2=O,-,-,-0.6223,-
O=C(CCn1ccnc1)N1CC[C@@H](c2ccc3ccccc3c2)[C@H](O)C1,-1.89,7.19,-19.45,21.05
Cc1nc(-c2ccccc2)n(CC(=O)NCC(C)C)n1,-0.6626,1.779,-0.7095,16.67
Cc1ccc(CC(=O)N2CCCCC2c2nc(C)cs2)cn1 (centres unmarked),-3.63,6.527,10.69,16.22
c1csc(CN2CCc3c(CNc4nncs4)cncc3C2)c1,-6.045,4.569,-,-5.882
CCn1cc(Br)c(C(=O)NCc2cnn(C)c2)n1,6.934,10.91,10.9,16.04
O=C(O)c1ccc(CC2CCN(S(=O)(=O)N3CCOCC3)C2)cc1 (centres unmarked),0.9961,5.732,-0.316,6.195
CC1c2ncc(CNC(=O)C3CC3)n2CCN1Cc1ccncc1 (centres unmarked),-20.2,4.316,-,9.722
Cn1c(=O)[nH]c(=O)c2cc(C(=O)N3CCCC3C3CCCC3)cnc21 (centres unmarked),4.32,2.39,-2.238,27.4
CCc1cnc(N2CCCOC(CN3CCCC3)C2)nc1 (centres unmarked),6.206,-,9.225,17.5
Cc1nc2c(c(NCCc3nc4c(s3)CCCC4)n1)CCNCC2,-26.16,5.59,49.04,19.17
COCCC(=O)N1C[C@H](C(C)C)[C@@H](N(C)C)C1,-1.021,7.16,12.49,-34.97
CC(C)C(=O)N1CCC(c2nc3ccccn3c2NC(C)(C)C)CC1,-12.27,-3.206,21.49,7.042
CCCC(=O)NCC(=O)NC1CC(C)(C)Cc2oc(C)cc21 (centres unmarked),4.275,-,14.46,22.86
Cc1ccsc1CN(CCN(C)C)C(=O)C1=NNC(=O)CC1,-10.09,1.107,22.64,3.226
O=S(=O)(CCO)Cc1ccc(OCC(F)(F)F)cc1,3.646,-,-1.345,-40
CCC(C)(CC(=O)OC)NCc1nc(C)no1 (centres unmarked),-9.57,9.448,-6.74,3.922
[H][C@@]12CCN(Cc3nc(C)cs3)C[C@@]1([H])O[C@H](c1noc(C)n1)C2,-,-,27.07,-
COc1cc(S(=O)(=O)Nc2cn[nH]c2)ccc1Br,0.1088,5.242,21.71,7.018
COCCN1C[C@H]2CC[C@@H]1CN(CC(=O)Nc1ccn(C)n1)C2,-12.05,1.353,-,16.13
Cc1ccnc(NC(=O)c2ccc(Br)o2)c1,-18.31,1.843,32.29,1.55
O=C1CN(C(=O)CNC(CC(F)(F)F)c2ccc(F)cc2)CCN1 (centres unmarked),-13.07,0.128,14.18,14.81
CCOc1c(F)cccc1C(=O)N(CC)C(C)c1cccnc1 (centres unmarked),-8.828,4.28,-9.56,8.108
Cc1cccc(C(=O)N2C[C@H](NS(C)(=O)=O)[C@@H]3OCCC[C@@H]32)n1,-3.819,-0.2028,-,11.93
CN(CC(C)(CO)CO)C(=O)Nc1cc(F)cc(F)c1,-3.95,-2.237,26.98,19.54
[H][C@]12CCN(C(=O)C3CCC3)CC[C@@]1([H])S(=O)(=O)N(Cc1cccnc1)C2,-,-,15.37,-
Cn1nccc1C1CCN(Cc2csc(-c3ncccn3)n2)CC1,11.82,11.8,33.66,27.69
CN1CCOC(CN(C(=O)CCc2ccco2)c2nccs2)C1 (centres unmarked),-7.393,2.632,12.29,0
Cc1nnc([C@@]23CCO[C@@H]2CCN(Cc2cccc4ccccc24)C3)o1,-2.972,-2.599,-,5.941
CC(=O)c1cn(CC(=O)N2CCC3(CC2)OCCO3)c2ccccc12,6.171,-1.22,8.034,1.667
CCN1CCO[C@@H]2CN(C(=O)COC3CCCC3)C[C@@H]2C1,1.285,0.8333,-,2.564
O=C1N[C@H]2OCCC[C@H]2[C@H](c2ccccc2)N1,-2.096,3.155,-,7.143
CCN1CC(CN(C)Cc2nc(-c3cccc(C)c3)oc2C)CC1=O (centres unmarked),-13.04,8.099,-24.82,24.49
Cc1ccc(C(=O)N(C)CCNS(C)(=O)=O)cc1Br,-1.062,-4,2.529,5.128
CC(C)=CCC1(CO)CCCN(S(C)(=O)=O)C1 (centres unmarked),-11.72,6.517,-2.744,14.71
O=C(NCCc1ccccn1)c1[nH]nc2c1CCCC2,-15.4,-0.1266,36.64,22.5
O=S(=O)(Nc1ccc(Oc2ccc3c(c2)OCO3)cc1)N1CCCCC1,22.78,-2.892,30.89,-9.89
O=C(O)C1(Cc2cccc(Cl)c2)CCCN(c2ncnc3[nH]ccc23)C1 (centres unmarked),-0.3173,6.579,20.11,19.67
COc1ccccc1OC1(C(=O)O)CCN(c2cc(C)nc(C)c2)CC1,-7.929,-2.195,-2.517,14.4
CNC(=O)c1cc2c(nc1NCC1CC1)CCN(S(C)(=O)=O)CC2,-301.8,6.015,-,23.08
CC1CCCN(Cc2ccnc(-c3cccnc3)n2)C1.O=C(O)CC(O)(CC(=O)O)C(=O)O (centres unmarked),-,-,2.34,-

For reference, 6 entries once more:

[H][C@@]12CCN(Cc3nc(C)cs3)C[C@@]1([H])O[C@H](c1noc(C)n1)C2 read Leishmania in macrophages: 27.07%.
COCCC(=O)N1CCCC2(CCCN2Cc2ccccc2F)C1.O=C(O)C(F)(F)F (centres unmarked) read Leishmania in macrophages: 10.06%.
O=C(O)C1(Cc2cccc(Cl)c2)CCCN(c2ncnc3[nH]ccc23)C1 (centres unmarked) read ClpP1P2: -0.3173%; CoaBC: 6.579%; Leishmania in macrophages: 20.11%; LiHisRS: 19.67%.
O=C(O)c1ccc(CC2CCN(S(=O)(=O)N3CCOCC3)C2)cc1 (centres unmarked) read ClpP1P2: 0.9961%; CoaBC: 5.732%; Leishmania in macrophages: -0.316%; LiHisRS: 6.195%.
Cc1nc(CN(C)C2CCN(CCCOc3ccccc3)C2)no1 (centres unmarked) read ClpP1P2: 7.239%; CoaBC: 2.372%; Leishmania in macrophages: 27.78%; LiHisRS: 28.12%.
O=C1NCCN2CCN(C(=O)NCCc3ccccc3)CC12 (centres unmarked) read ClpP1P2: -0.2004%; CoaBC: 9.917%; Leishmania in macrophages: 18.36%; LiHisRS: 2.667%.

From ChEMBL document CHEMBL3988442, “University of Dundee, Small-Polar-MMV Screening Library” (2021).